The record followed here is the supplement of paper PMC12819154, “High-throughput peptide-centric local stability assay extends protein–ligand identification to membrane proteins, tissues and bacteria” (Nature Structural & Molecular Biology, 2025).

By UniProt entry, the sequences of proteins in these tests, tags left out. Where a name states a change or a piece, a line headed by the entry shows the natural chain unless it says otherwise.
UniProt Q9NRF9: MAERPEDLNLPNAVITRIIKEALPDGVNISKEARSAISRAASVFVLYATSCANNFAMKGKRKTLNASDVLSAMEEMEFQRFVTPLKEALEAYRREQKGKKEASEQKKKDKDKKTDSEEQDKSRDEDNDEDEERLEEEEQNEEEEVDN
UniProt Q9NYP9: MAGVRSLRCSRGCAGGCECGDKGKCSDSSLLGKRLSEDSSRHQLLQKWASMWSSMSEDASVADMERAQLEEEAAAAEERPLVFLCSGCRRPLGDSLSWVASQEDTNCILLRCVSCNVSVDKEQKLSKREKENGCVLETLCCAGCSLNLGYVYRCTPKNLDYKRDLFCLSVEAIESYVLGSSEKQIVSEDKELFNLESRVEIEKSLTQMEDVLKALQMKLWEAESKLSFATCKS
UniProt Q9NS56: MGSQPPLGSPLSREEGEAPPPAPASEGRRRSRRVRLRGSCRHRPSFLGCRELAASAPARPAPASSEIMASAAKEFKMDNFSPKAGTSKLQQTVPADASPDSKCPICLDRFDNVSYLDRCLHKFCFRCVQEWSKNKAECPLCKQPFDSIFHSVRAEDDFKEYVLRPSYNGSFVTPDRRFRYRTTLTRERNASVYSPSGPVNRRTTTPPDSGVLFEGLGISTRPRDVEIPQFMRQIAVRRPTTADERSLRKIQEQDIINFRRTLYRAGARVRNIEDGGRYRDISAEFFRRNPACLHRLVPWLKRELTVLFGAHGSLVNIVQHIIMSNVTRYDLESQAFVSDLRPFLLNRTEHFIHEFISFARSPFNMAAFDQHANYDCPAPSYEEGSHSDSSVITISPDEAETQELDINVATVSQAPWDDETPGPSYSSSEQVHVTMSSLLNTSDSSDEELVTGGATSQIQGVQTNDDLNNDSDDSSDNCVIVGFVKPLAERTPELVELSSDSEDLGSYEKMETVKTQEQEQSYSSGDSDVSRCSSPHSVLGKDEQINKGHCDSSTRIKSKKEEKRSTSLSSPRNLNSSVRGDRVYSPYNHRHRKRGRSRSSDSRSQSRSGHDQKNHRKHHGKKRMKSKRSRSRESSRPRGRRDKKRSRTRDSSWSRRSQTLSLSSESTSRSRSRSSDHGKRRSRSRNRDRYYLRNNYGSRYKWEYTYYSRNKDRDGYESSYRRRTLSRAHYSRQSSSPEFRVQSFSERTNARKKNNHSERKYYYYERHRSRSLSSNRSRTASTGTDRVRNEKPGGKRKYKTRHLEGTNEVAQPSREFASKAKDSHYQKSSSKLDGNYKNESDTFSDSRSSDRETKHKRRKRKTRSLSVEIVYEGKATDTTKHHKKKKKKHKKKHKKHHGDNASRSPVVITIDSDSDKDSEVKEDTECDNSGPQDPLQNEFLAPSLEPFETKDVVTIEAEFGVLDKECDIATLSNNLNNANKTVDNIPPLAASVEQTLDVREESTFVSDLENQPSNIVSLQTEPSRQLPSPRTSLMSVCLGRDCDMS
UniProt Q9NWV8, whole entry: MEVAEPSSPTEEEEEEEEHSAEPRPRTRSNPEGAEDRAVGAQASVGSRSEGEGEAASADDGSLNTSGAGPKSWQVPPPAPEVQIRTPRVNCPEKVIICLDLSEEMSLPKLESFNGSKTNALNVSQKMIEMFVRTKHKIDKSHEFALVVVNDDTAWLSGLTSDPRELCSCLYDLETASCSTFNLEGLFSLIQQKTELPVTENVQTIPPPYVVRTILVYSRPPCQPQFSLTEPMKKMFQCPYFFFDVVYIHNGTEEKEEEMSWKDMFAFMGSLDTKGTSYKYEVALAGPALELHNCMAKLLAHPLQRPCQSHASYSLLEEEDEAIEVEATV
UniProt Q9NYJ1, whole entry: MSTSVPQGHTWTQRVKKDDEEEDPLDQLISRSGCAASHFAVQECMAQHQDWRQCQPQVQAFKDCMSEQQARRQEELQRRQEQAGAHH
UniProt Q9NR81: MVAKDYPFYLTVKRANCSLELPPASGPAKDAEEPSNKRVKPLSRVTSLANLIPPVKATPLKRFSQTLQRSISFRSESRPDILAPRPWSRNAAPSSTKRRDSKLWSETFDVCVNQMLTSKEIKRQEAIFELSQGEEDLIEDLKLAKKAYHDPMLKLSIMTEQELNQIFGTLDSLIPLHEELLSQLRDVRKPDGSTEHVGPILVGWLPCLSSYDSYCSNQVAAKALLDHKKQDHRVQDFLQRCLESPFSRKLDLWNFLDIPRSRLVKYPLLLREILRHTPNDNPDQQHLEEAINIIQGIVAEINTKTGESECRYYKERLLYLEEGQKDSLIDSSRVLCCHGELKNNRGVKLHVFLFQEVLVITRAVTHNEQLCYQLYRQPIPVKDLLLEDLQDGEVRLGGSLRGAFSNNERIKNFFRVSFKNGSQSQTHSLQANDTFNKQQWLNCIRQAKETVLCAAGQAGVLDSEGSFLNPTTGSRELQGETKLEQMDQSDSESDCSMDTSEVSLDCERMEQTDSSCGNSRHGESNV
UniProt Q9NUD5: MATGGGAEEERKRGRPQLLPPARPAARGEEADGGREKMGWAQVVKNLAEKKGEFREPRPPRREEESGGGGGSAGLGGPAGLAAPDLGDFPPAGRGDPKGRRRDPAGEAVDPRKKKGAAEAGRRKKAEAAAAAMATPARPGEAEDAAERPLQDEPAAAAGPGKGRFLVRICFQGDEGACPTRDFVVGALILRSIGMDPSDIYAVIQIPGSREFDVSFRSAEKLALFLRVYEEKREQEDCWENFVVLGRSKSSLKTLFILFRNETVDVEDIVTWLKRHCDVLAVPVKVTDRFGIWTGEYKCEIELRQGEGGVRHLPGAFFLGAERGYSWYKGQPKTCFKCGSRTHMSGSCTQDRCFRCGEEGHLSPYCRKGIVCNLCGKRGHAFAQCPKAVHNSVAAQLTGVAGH
UniProt Q9NWB6: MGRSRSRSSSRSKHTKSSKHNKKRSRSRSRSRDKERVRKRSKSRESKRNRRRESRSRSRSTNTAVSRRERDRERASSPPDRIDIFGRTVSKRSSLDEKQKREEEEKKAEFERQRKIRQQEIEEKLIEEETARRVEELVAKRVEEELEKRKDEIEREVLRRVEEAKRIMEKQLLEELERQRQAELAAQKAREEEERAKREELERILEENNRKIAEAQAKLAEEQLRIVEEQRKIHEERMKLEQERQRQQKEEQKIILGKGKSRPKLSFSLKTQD
UniProt Q9NV31: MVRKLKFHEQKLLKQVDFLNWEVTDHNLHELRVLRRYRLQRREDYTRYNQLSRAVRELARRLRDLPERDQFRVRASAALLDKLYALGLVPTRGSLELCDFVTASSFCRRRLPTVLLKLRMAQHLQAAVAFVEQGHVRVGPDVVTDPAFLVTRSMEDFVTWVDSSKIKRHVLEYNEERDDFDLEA
UniProt Q9NWT1: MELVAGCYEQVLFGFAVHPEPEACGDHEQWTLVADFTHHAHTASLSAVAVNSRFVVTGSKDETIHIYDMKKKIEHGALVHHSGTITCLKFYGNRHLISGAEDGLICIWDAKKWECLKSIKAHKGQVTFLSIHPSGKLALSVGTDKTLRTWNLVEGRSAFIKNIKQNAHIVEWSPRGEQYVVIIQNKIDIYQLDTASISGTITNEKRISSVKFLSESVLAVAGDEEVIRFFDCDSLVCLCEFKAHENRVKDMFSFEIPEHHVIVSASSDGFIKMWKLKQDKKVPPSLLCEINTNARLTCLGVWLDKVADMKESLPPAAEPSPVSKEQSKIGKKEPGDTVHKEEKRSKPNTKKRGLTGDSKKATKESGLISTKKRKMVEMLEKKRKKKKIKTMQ
UniProt Q9NRR8: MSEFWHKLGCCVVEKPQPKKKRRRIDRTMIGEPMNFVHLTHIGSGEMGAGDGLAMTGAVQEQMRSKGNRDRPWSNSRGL

The other results are listed elsewhere or left out. Small differences around the control level are noise.

Compound in this test: CN[C@@H]1C[C@H]2O[C@@](C)([C@@H]1OC)n1c3ccccc3c3c4c(c5c6ccccc6n2c5c31)C(=O)NC4 [staurosporine]
Description: log2 fold change of tryptic peptide abundance, ligand vs vehicle (limited proteolysis) (log2 ratio); higher = more trypsin-susceptible (destabilized). Conditions: ligand concentration: 20 uM; sample: K562 cleared lysate; digestion: 4 min, 22 C (HT-PELSA RT4min, Orbitrap Astral).
Turning to “POLE3 (peptide sequence: KTLNASDVLSAMEEMEFQR, peptide start residue: 62) (UniProt Q9NRF9)”, the log2 fold change is 0.309. Consider “UniProt Q9NYP9 (peptide sequence: CSDSSLLGKR, peptide start residue: 25)”, for which the log2 fold change was 0.431. Next, “UniProt Q9NS56 (peptide sequence: KIQEQDIINFR, peptide start residue: 249)”: -0.342; “UniProt Q9NWV8 (peptide sequence: LESFNGSK, peptide start residue: 110)”: 0.195. Next, “UniProt Q9NYJ1 (peptide sequence: VKKDDEEEDPLDQLISR, peptide start residue: 15)”: -0.0832; “UniProt Q9NR81 (peptide sequence: CLESPFSR, peptide start residue: 293)”: 0.229; “ZCCHC3 (peptide sequence: GHAFAQCPK, peptide start residue: 379) (UniProt Q9NUD5)”: -0.326. As to “ARGLU1 (peptide sequence: RVEEELEKR, peptide start residue: 141) (UniProt Q9NWB6)”, the log2 fold change stood at 0.342.

As for “IMP3 (peptide sequence: LKFHEQK, peptide start residue: 5) (UniProt Q9NV31)”, the log2 fold change is 0.613. As for “PAK1IP1 (peptide sequence: EPGDTVHKEEKR, peptide start residue: 333) (UniProt Q9NWT1)”, the figure is -0.13. With “CDC42SE1 (peptide sequence: LGCCVVEKPQPK, peptide start residue: 8) (UniProt Q9NRR8)”, the log2 fold change is -0.291.
